Results published in paper PMC5484104.
No constants are given. Whether binding was seen depends on the method and setting. Binding seen in cells or lysates may run through a third protein. Some binding calls cover weakened binding; strength is not graded here.

Target: transcription factor E2F-4 (human (endogenous in HCT116)), Q16254
Assay: co-IP; p53+/+ and p53−/− HCT116 cells incubated with or without 150 μg/mL fucoidan for 24 h; 500 μg protein immunoprecipitated with anti-E2F-1 or anti-E2F-4 antibodies (6 h, 4 °C, protein A-Sepharose), blot probed with anti-pRB
Settings: remark: other sources report otherwise

B1: retinoblastoma protein (pRB), P06400 1-928 (protein)
chain: MPPKTPRKTAATAAAAAAEPPAPPPPPPPEEDPEQDSGPEDLPLVRLEFEETEEPDFTALCQKLKIPDHVRERAWLTWEKVSSVDGVLGGYIQKKKELWGICIFIAAVDLDEMSFTFTELQKNIEISVHKFFNLLKEIDTSTKVDNAMSRLLKKYDVLFALFSKLERTCELIYLTQPSSSISTEINSALVLKVSWITFLLAKGEVLQMEDDLVISFQLMLCVLDYFIKLSPPMLLKEPYKTAVIPINGSPRTPRRGQNRSARIAKQLENDTRIIEVLCKEHECNIDEVKNVYFKNFIPFMNSLGLVTSNGLPEVENLSKRYEEIYLKNKDLDARLFLDHDKTLQTDSIDSFETQRTPRKSNLDEEVNVIPPHTPVRTVMNTIQQLMMILNSASDQPSENLISYFNNCTVNPKESILKRVKDIGYIFKEKFAKAVGQGCVEIGSQRYKLGVRLYYRVMESMLKSEEERLSIQNFSKLLNDNIFHMSLLACALEVVMATYSRSTSQNLDSGTDLSFPWILNVLNLKAFDFYKVIESFIKAEGNLTREMIKHLERCEHRIMESLAWLSDSPLFDLIKQSKDREGPTDHLESACPLNLPLQNNHTAADMYLSPVRSPKKKGSTTRVNSTANAETQATSAFQTQKPLKSTSLSLFYKKVYRLAYLRLNTLCERLLSEHPELEHIIWTLFQHTLQNEYELMRDRHLDQIMMCSMYGICKVKNIDLKFKIIVTAYKDLPHAVQETFKRVLIKEEEYDSIIVFYNSVFMQRLKTNILQYASTRPPTLSPIPHIPRSPYKFPSSPLRIPGGNIYISPLKSPYKISEGLPTPTKMTPRSRILVSIGESFGTSEKFQKINQMVCNSDRVLKRSAEGSNPPKPLKKLRFDIEGSDEADGSKHLPGESKFQQKLAEMTSTRTRMQKQKMNDSMDTSNKEEK
binding: binds
